# Literature values as cited in article PMC2819033 (Journal of medicinal chemistry, 2009).
# Tested on: MCF-7 (breast cancer) cells
# Settings: read-out: IC50 MCF-7; crystal violet; cited from earlier work
smiles,measurement,value
N.N.[Cl][Pt][Cl] [cisplatin],IC50,1380 ± 290 nM
